In PubChem BioAssay AID248 (DTP/NCI, 2004):
The list shows only some results of the screen, not a fair sample: it gathers tests that were run many times, whatever their T/C, doses with no T/C, and many T/C values between a quarter and a half above the control. Further doses and runs are listed elsewhere. T/C is the treated group as % of the vehicle group. Some doses have a count of surviving animals in place of a T/C: the source files T/C as zero there, which appears to mark a toxic dose or a test without result, not a measured value. Some survivor counts are full or nearly so, which does not show that the dose was tolerated: the source hardly ever lists a survival T/C far under the control, and the zero likely stands for such cases as well. Survivors were counted at the toxicity check, usually on the fifth day, unless a day is given; later deaths do not show. Schedule codes are those of the source, read here as Q, the interval in days (D) or hours (H), X, the number of doses. Some schedules carry Z or #; the key to these is not given. Where survival is the endpoint, this PubChem deposit counts one and a half times the control or more as active, and values a quarter to a half above the control carry no call in these data; other NCI protocols may use other cut-offs. Some T/C values carry the count of animals alive at the toxicity check (mostly the fifth day); where none is given, no animal had died by that day.

Test system: L1210 leukemia ip in BDF1 mice, survival T/C
Assay: NCI In Vivo Anticancer Drug Screen. Data for tumor model L1210 Leukemia (intraperitoneal) in B6D2F1 (BDF1) mice
Details: T/C endpoint: mean survival time, higher T/C = longer survival
[1] = dose: 400.0 mg/kg/injection, schedule: Q01DX009 (ip), vehicle: Klucel (hydroxypropylcellulose) (HPC)
[2] = dose: 400.0 mg/kg/injection, schedule: Q01DX009 (ip), vehicle: saline with Tween-80
[3] = dose: 100.0 mg/kg/injection, schedule: Q04DX002 (ip), vehicle: Klucel (hydroxypropylcellulose) (HPC)
[4] = dose: 400.0 mg/kg/injection, schedule: Q04DX002 (ip), vehicle: Klucel (hydroxypropylcellulose) (HPC)

Question: Which survivor count (dose: 12.0 mg/kg/injection, schedule: Q01DX Z (ip), vehicle: water) does the source give for `O=C(Nc1cc(C2=NCCN2)cc(C2=NCCN2)c1)Nc1cc(C2=NCCN2)cc(C2=NCCN2)c1` here?
Answer: 0 of 6

Question: And the survivor count (dose: 25.0 mg/kg/injection, schedule: Q01DX Z (ip), vehicle: water)?
Answer: 0 of 6

Question: And the survivor count (dose: 50.0 mg/kg/injection, schedule: Q01DX Z (ip), vehicle: water)?
Answer: 0 of 6

Question: And the survivor count (dose: 100.0 mg/kg/injection, schedule: Q01DX Z (ip), vehicle: water)?
Answer: 0 of 6

Question: For `N#CC1(Nc2ccc(S(N)(=O)=O)cc2)CCCC1`, which survivor count (dose: 400.0 mg/kg/injection, schedule: Q01DX001 (ip), vehicle: carboxymethylcellulose (CMC)) is on record?
Answer: 4 of 4

Question: `CCCN(CCC)CC(C)=O` was tested. Which survivor count (dose: 400.0 mg/kg/injection, schedule: Q01DX009 (ip), vehicle: saline) did it give?
Answer: 0 of 6

Question: What about the survivor count (dose: 400.0 mg/kg/injection, schedule: Q04DX003 (ip), vehicle: saline) of the same molecule?
Answer: 1 of 6

Question: How did the survivor count (dose: 200.0 mg/kg/injection, schedule: Q04DX003 (ip), vehicle: saline with Tween-80) turn out when `CN1CCN(C2CCCCc3ccccc32)CC1` (configuration not stated) was run?
Answer: 0 of 6

Question: And the survivor count (dose: 400.0 mg/kg/injection, schedule: Q04DX003 (ip), vehicle: saline with Tween-80)?
Answer: 0 of 6

Question: How did the survivor count [1] turn out when `OCCNc1nc2cc(Cl)ccc2c2ccc(Cl)cc12` was run?
Answer: 4 of 6

Question: Which survivor count (dose: 100.0 mg/kg/injection, schedule: Q01DX009 (ip), vehicle: saline with Tween-80) does the source give for `CCO/C=C1\SC(=S)N(c2ccc(C(=O)O)cc2)C1=O` here?
Answer: 3 of 6

Question: And the survivor count (dose: 200.0 mg/kg/injection, schedule: Q01DX009 (ip), vehicle: saline sonified)?
Answer: 4 of 6

Question: What about the survivor count (dose: 400.0 mg/kg/injection, schedule: Q01DX009 (ip), vehicle: saline sonified) of the same molecule?
Answer: 2 of 6

Question: How did the T/C (dose: 200.0 mg/kg/injection, schedule: Q01DX009 (ip), vehicle: saline with Tween-80) turn out when `CCC1CN2CCc3cc(OC)c(OC)cc3C2CC1=O` (configuration not stated) was run?
Answer: 128 % of control [5 of 6 alive]

Question: What about the T/C [2] of the same molecule?
Answer: 134 % of control [4 of 6 alive]

Question: And the survivor count [2]?
Answer: 3 of 6

Question: What does the source list for `NC(CSS(=O)(=O)O)=NCCc1ccccc1`?
Answer: survivor count (dose: 25.0 mg/kg/injection, schedule: Q04DX002 (ip), vehicle: Klucel (hydroxypropylcellulose) (HPC)): 0 of 3; survivor count (dose: 50.0 mg/kg/injection, schedule: Q04DX002 (ip), vehicle: Klucel (hydroxypropylcellulose) (HPC)): 0 of 3; survivor count [3]: 0 of 3; survivor count (dose: 200.0 mg/kg/injection, schedule: Q04DX002 (ip), vehicle: Klucel (hydroxypropylcellulose) (HPC)): 0 of 3; survivor count [4]: 0 of 3

Question: `O=C1c2ccccc2-c2ncccc21` was tested. Which survivor count (dose: 400.0 mg/kg/injection, schedule: Q04DX003 (ip), vehicle: Klucel (hydroxypropylcellulose) (HPC)) did it give?
Answer: 6 of 6

Question: How did the survivor count [4] turn out when `COC(=O)N(CCCCN(N=O)C(=O)OC)N=O` was run?
Answer: 3 of 3

Question: Which survivor count (dose: 200.0 mg/kg/injection, schedule: Q01DX009 (ip), vehicle: Klucel (hydroxypropylcellulose) (HPC)) does the source give for `O=C(NC(CSC(c1ccccc1)c1ccccc1)C(=O)O)OCc1ccccc1` (configuration not stated) here?
Answer: 3 of 6

Question: And the survivor count [1]?
Answer: 0 of 6

Question: `CCN(CC)CCN(CC)C(=O)C1C(c2ccccc2)C1c1ccccc1` (configuration not stated) was tested. Which survivor count [3] did it give?
Answer: 1 of 3

Question: What about the survivor count (dose: 100.0 mg/kg/injection, schedule: Q04DX002 (ip), vehicle: saline) of the same molecule?
Answer: 1 of 3

Question: What about the survivor count (dose: 200.0 mg/kg/injection, schedule: Q04DX002 (ip), vehicle: saline) of the same molecule?
Answer: 0 of 3

Question: And the survivor count (dose: 400.0 mg/kg/injection, schedule: Q04DX002 (ip), vehicle: saline)?
Answer: 0 of 3

Question: For `CSc1nc(N)cc(C(N)=O)n1`, which survivor count (dose: 200.0 mg/kg/injection, schedule: Q01DX Z (ip), vehicle: methylcellulose (MC)) is on record?
Answer: 0 of 6

Question: `CCCCNC(=O)OCC` was tested. Which T/C (dose: 200.0 mg/kg/injection, schedule: Q01DX001 (ip), vehicle: carboxymethylcellulose (CMC)) did it give?
Answer: 127 % of control

Question: How did the survivor count (dose: 100.0 mg/kg/injection, schedule: Q01DX009 (ip), vehicle: Klucel (hydroxypropylcellulose) (HPC)) turn out when `Cc1cccc(Cl)c1NC(=O)Nc1cccc(C(=O)O)c1` was run?
Answer: 6 of 6
